Assay results from US7838676B2, “Beta-secretase modulators and methods of use” (Amgen Inc., priority 2005, dated 2010).
Some entries share one result that the patent states for a list of compounds. For at least one compound, name, drawing or mass did not settle the structure.

Chains of the proteins cited; added tags and fusions are not shown. Residues count along the entry.
UniProt P56817, 46-501, species assumed: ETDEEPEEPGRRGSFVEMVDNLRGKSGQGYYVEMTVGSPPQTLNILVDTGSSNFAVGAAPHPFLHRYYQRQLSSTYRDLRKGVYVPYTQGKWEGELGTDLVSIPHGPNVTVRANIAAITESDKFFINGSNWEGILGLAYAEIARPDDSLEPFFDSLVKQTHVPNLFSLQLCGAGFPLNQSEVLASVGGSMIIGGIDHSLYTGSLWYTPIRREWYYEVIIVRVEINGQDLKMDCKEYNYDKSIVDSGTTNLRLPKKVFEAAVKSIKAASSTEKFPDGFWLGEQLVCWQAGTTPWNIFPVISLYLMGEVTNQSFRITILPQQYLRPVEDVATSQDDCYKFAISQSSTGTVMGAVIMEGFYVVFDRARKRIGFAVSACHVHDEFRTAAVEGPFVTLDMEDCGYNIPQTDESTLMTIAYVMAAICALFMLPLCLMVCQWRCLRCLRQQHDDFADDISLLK

Target: BACE (Homo sapiens, UniProt P56817)
Assay: In Vitro Enzymatic BACE FRET (Fluorescence Resonance Energy Transfer) Assay
Format: biochemical
Conditions: enzyme 0.2 nM, FRET substrate 50 nM, pH 4.2

| Compound | IC50 [µM] |
| --- | --- |
| CC(=O)N1CCC[C@@H]1c1cc(C(=O)N[C@@H](Cc2ccccc2)[C@H](O)CNCc2cccc(C(F)(F)F)c2)cc(C2CCCC2)c1.CC(=O)N1CCC[C@H]1c1cc(C(=O)N[C@@H](Cc2ccccc2)[C@H](O)CNCc2cccc(C(F)(F)F)c2)cc(C2CCCC2)c1 [Example 12, 3-((2S)-1-acetyl-2-pyrrolidinyl)-5-cyclopentyl-N-((1S,2R)-2-hydroxy-1-(phenylmethyl)-3-(((3-(trifluoromethyl)phenyl)methyl)amino)propyl)benzamide 3-((2R)-1-acetyl-2-pyrrolidinyl)-5-cyclopentyl-N-((1S,2R)-2-hydroxy-1-(phenylmethyl)-3-(((3-(trifluoromethyl)phenyl)methyl)amino)propyl)benzamide] | ≤ 5 |
| CC(C)(C)Cc1cnc2c(c1)[C@@H](NC[C@@H](O)[C@H](Cc1ccccc1)NC(=O)c1ncccc1F)CC1(CCOC1)O2 (stereo partly drawn) [Example 44, 3-fluoro-N-((2S,3R)-3-hydroxy-4-((S)-6-neopentyl-3,4-dihydro-2,2-spirocyclotetrahydrofuranyl-pyrano[2,3-b]pyridin-4-ylamino)-1-phenylbutan-2-yl)picolinamide] | ≤ 5 |
| N-((2S,3R)-4-((S)-6-ethyl-2,2-spirocyclopentylchroman-4-ylamino)-3-hydroxy-1-phenylbutan-2-yl)-4-carboxamide-(S)-methyl 2-(2,3,4,5-tetrahydro-5H-imidazole-[1,2-a]azepin-6-yl) acetate AND N-((2S,3R)-4-((S)-6-ehtyl-2,2-spirocyclo-pentylchroman-4-ylamino)-3-hydroxy-1-phenylbutan-2-yl)-4-carboxamide-(R)-methyl 2-(2,3,4,5-tetrahydro-5H-imidazole-[1,2-a]azepin-6-yl) acetate [Example 76] | ≤ 5 |
